Reference: article PMC12377818
Results are given in words; binding and its absence hold for the method and conditions named. In cells and extracts the contact can be indirect. Some results given as binding are weak or reduced against the parent protein; the word gives no strength.

T1: PDHB (pyruvate dehydrogenase E1 subunit beta) (mouse (endogenous in testis)) (UniProt Q9D051)
T1 sequence: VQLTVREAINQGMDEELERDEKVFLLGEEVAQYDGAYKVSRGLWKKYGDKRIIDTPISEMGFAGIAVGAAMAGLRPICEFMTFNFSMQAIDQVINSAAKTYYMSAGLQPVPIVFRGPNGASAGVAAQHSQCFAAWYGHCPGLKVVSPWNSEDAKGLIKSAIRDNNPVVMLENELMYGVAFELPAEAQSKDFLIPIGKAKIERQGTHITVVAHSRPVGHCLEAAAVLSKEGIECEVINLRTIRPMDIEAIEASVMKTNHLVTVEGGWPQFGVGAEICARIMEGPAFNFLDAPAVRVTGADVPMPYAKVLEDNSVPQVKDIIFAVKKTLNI

T2: PDHA2 (pyruvate dehydrogenase E1 subunit alpha 2) (mouse (endogenous in testis)) (UniProt P35487)
T2 sequence: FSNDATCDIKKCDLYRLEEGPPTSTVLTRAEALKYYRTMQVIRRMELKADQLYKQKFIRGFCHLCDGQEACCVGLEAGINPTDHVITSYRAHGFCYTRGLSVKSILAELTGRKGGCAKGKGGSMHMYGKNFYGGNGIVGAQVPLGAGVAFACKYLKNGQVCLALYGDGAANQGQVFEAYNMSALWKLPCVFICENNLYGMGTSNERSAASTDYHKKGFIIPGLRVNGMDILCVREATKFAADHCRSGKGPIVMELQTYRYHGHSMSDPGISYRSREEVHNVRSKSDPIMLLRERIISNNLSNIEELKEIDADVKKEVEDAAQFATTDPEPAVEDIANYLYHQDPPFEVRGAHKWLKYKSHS


How the values were obtained:
[1] = target: T1, PDHB (pyruvate dehydrogenase E1 subunit beta) (mouse (endogenous in testis)); assay: co-IP; IP with anti-PDHA2, anti-PDHA1 and anti-PDHB antibodies on Dynabeads Protein G from adult Pdha2+/- and Pdha2-/- testis lysates (NP40 lysis buffer, 1 h at 4°C), then western blot
[2] = target: T2, PDHA2 (pyruvate dehydrogenase E1 subunit alpha 2) (mouse (endogenous in testis)); assay: as above

Row | Binder | binding [1] | binding [2]
1 | PDHA1 (pyruvate dehydrogenase E1 subunit alpha 1) (protein, UniProt P35486 30-390) FANDATFEIKKCDLHRLEEGPPVTTVLTREDGLKYYRMMQTVRRMELKADQLYKQKIIRGFCHLCDGQEACCVGLEAGINPTDHLITAYRAHGFTFTRGLPVRAILAELTGRRGGCAKGKGGSMHMYAKNFYGGNGIVGAQVPLGAGIALACKYNGKDEVCLTLYGDGAANQGQIFEAYNMAALWKLPCIFICENNRYGMGTSVERAAASTDYYKRGDFIPGLRVDGMDILCVREATKFAAAYCRSGKGPILMELQTYRYHGHSMSDPGVSYRTREEIQEVRSKSDPIMLLKDRMVNSNLASVEELKEIDVEVRKEIEDAAQFATADPEPPLEELGYHIYSSDPPFEVRGANQWIKFKSVS | binds | binds
2 | PDHB (pyruvate dehydrogenase E1 subunit beta) (protein, UniProt Q9D051 31-359) VQLTVREAINQGMDEELERDEKVFLLGEEVAQYDGAYKVSRGLWKKYGDKRIIDTPISEMGFAGIAVGAAMAGLRPICEFMTFNFSMQAIDQVINSAAKTYYMSAGLQPVPIVFRGPNGASAGVAAQHSQCFAAWYGHCPGLKVVSPWNSEDAKGLIKSAIRDNNPVVMLENELMYGVAFELPAEAQSKDFLIPIGKAKIERQGTHITVVAHSRPVGHCLEAAAVLSKEGIECEVINLRTIRPMDIEAIEASVMKTNHLVTVEGGWPQFGVGAEICARIMEGPAFNFLDAPAVRVTGADVPMPYAKVLEDNSVPQVKDIIFAVKKTLNI | – | binds
